Laboratory results taken from PubChem BioAssay AID2685 (National Center for Advancing Translational Sciences (NCATS), 2010).
Some of the results follow. These are further read-outs of the screen, such as a control signal, another cell line or another target. No call is given for them. Most of these compounds were active or inconclusive in the main read-out, so they are no random draw. The note in brackets gives the kind of curve behind each potency; many fits are weak.

Assay: qHTS Assay for Lipid Storage Modulators in Drosophila S3 Cells;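 as to cell number change: cells counted by Cell Tracker Red CMTPX staining in the red channel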
Details: BODIPY lipid droplet fluorescence, 18-24 h; for cell number change: measured here: cell count max response, cells fed with added oleic acid
Summary of the method: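 Drosophila S3 cells loaded with oleic acid (400 uM, as added) and compounds at several concentrations; lipid droplets imaged by 488-nm laser-scanning cytometry, 500–530 nm intensity and object ratio to cell channel. Percent activity normalized to 20 uM Triacsin C.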

[1] = measured here: lipid fluorescence (Fed channel) AC50, cells fed with added oleic acid
[2] = measured here: cell number channel AC50, cells fed with added oleic acid

| SMILES | cell number change [%] | AC50 [1] | AC50 [2] |
| --- | --- | --- | --- |
| COc1cc(NS(=O)(=O)c2ccc(Nc3nc(-c4ccccn4)cs3)cc2)nc(OC)n1 | 14.7 | 10.3 µM [rising, partial curve] |  |
| CN(C)C1=NCCN1CC1CCCCC1 | -16.4 |  |  |
| Cc1c(OC(C)C(=O)N2C[C@H]3C[C@@H](C2)c2cccc(=O)n2C3)ccc2c3c(c(=O)oc12)CCC3 (stereo partly drawn) | -0.324 | 29.1 µM [falling, single point] |  |
| COc1ccc(C(=O)Nc2ccc3[nH]ncc3c2)cc1 | 3.7 | 29.1 µM [falling, single point] |  |
| Cc1cc(C(N)=O)c2cc(Br)ccc2n1 |  | 6.51 µM [rising, single point] |  |
| O=C(CCc1ccccc1)NNC(=O)c1ccc(Cl)cc1 | 4.76 | 2.31 µM [rising, partial curve, poor fit] |  |
| CC(C)C(NC(=O)c1ccco1)C(=O)OCC(=O)N1CC(=O)Nc2ccccc21 (stereo not drawn) | 3.57 | 7.31 µM [rising, partial curve, poor fit] |  |
| COc1ccccc1N1CCN(C(=O)CN2C(=O)C3CCCCC3C2=O)CC1 (stereo not drawn) | 12.1 | 0.00517 µM [falling, full curve, poor fit] |  |
| CC1=C(/C=C/C(C)=C/C=C/C(C)=C/C(=O)Nc2ccc(O)cc2)C(C)(C)CCC1 | -88.8 |  | 5.17 µM [falling, single point] |
| CC(=O)Nc1ccc(OCC(=O)N2CCc3ccccc3C2)cc1 | 15.4 | 5.17 µM [falling, single point] |  |
| COc1ccc(S(=O)(=O)N2CCCCC2)cc1NC(=O)CCOc1cc(C)ccc1C | 4.67 | 3.26 µM [rising, partial curve, poor fit] |  |
| Cc1nccc(-c2ccc(-n3c(C)ccc3C)cc2)n1 |  | 23.1 µM [rising, partial curve] |  |
| CCOC(=O)CN1Cc2cccc(C(=O)O)c2C1=O | 9.69 | 0.92 µM [falling, full curve, poor fit] |  |
| CCOC(=O)N1CCN(S(=O)(=O)N2CCCC(C(=O)NCc3ccc(OC)cc3)C2)CC1 (stereo not drawn) | -19.9 | 2.31 µM [falling, single point] |  |
| COc1ccc(CCNc2nc3ccc(C)cc3n3cnnc23)cc1OC | 20.2 |  |  |
| Nc1cc(-c2ccc(OC(F)(F)F)cc2)nn1-c1ccc(Cl)c(Cl)c1 | -51.8 | 20.6 µM [falling, partial curve, poor fit] | 7.31 µM [falling, partial curve, poor fit] |

Two consecutive compounds out of the list so far:

| SMILES | cell number change [%] | AC50 [1] | AC50 [2] |
| --- | --- | --- | --- |
| CC(=O)Nc1ccc(OCC(=O)N2CCc3ccccc3C2)cc1 | 15.4 | 5.17 µM [falling, single point] |  |
| COc1ccc(S(=O)(=O)N2CCCCC2)cc1NC(=O)CCOc1cc(C)ccc1C | 4.67 | 3.26 µM [rising, partial curve, poor fit] |  |

Additional records

| SMILES | cell number change [%] | AC50 [1] | AC50 [2] |
| --- | --- | --- | --- |
| CC1(C)CC(=O)C(C=NCC2CCNCC2)=C(O)C1 | -21.3 | 5.17 µM [falling, full curve] |  |
| COc1ccc(N(CC(=O)NC2CCCCCC2)S(=O)(=O)c2ccc(C)cc2)cc1OC | -0.88 | 0.116 µM [rising, single point] |  |
| O=C(CCNC(=O)c1ccc([N+](=O)[O-])cc1)NNC(=O)c1ccccc1F | 14.6 | 0.651 µM [falling, single point] |  |
| O=C(NCCCN1CCOCC1)c1cc(-c2ccc(Br)cc2)on1 | 9.85 |  |  |
| O=C(Nc1ccc(C(=O)O)cc1)Nc1ccc([N+](=O)[O-])cc1 | 39.9 | 29.1 µM [rising, single point] |  |
| COc1c(F)c(F)c(C(=O)Nc2ccccc2N2CCN(C(=O)C(C)C)CC2)c(F)c1F | -18.8 | 0.146 µM [falling, single point] |  |
| CCc1c(C)nc2ncnn2c1N1CCCC(C(=O)NCc2ccc3c(c2)OCO3)C1 (stereo not drawn) | -31.3 |  | 23.1 µM [falling, single point] |
| CN(Cc1nccs1)C(=O)C1CCC(=O)N(Cc2ccccc2F)C1 (stereo not drawn) | -10.9 | 29.1 µM [rising, single point] |  |
| COC(=O)c1ccc(OC)c(CSc2nnc(COc3ccc(Cl)cc3)o2)c1 | 141 | 6.51 µM [rising, single point] | 14.6 µM [rising, partial curve] |
| CCCCc1nnc(NC(=O)CC(=O)Nc2ccccc2C(=O)O)s1 | 12.9 |  |  |
| COc1cc(C(=O)Nc2ccc(C)cn2)ccc1OCC(=O)N1CCOCC1 |  | 1.03 µM [falling, full curve] |  |
| CS(=O)(=O)C1=NSC2=NC(=O)/C(=C\c3cccn3-c3ccccc3Cl)C(=N)N21 | 39.4 | 1.64 µM [rising, partial curve] | 2.31 µM [rising, single point] |
| COc1ccccc1NC(=O)CCSCCC(=O)Nc1ccccc1OC | -59.1 | 6.51 µM [rising, single point] | 14.6 µM [falling, partial curve, poor fit] |
| CSc1ccccc1C(=O)OCC(=O)NC1CCS(=O)(=O)C1 (stereo not drawn) | -28 |  |  |
| COc1ccc(OC)c(C2=NOC(C(=O)N3CCCc4ccccc43)C2)c1 (stereo not drawn) | -34.9 |  | 18.4 µM [falling, single point] |
